Reference: PubChem BioAssay AID1259405 (NCATS, 2018)

Aim: 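Silenced genes that increase secreted GFP made by CHO cells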 (primary screen)
System: Chinese hamster CHO-K1 ovary cells with stable secreted eGFP expression
Knock-down reagent: single siRNA against mouse genes, 0.8 pmol siRNA per well (2 µl of 400 nM stock)
Time to read-out: 3 days
Read-out: 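Per-well intracellular GFP measured by laser scanning cytometry, plus viability from ATP luminescence, each relative to plate median of non-targeting control wells, in %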
Reading the numbers: GFP, % of control: higher = more GFP per well, higher productivity; viability (ATP), % of control: higher = more viable cells (more ATP)
Call rule: 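Called active when intracellular GFP, relative to negative control, is at or above 120%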
This is an unselected part of about 50,000 reagents tested. About 4,000 of all reagents (8%) count as active. 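Mouse siRNA library applied to hamster cells; one well for each siRNA.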 Reagents against one gene are numbered here.

gene	reagent no.	GFP, % of control	viability (ATP), % of control	outcome
Prss8	1	86.4	86	inactive
Prss8	2	56.4	32	inactive
Prss8	3	67.6	36.5	inactive
Ncam2	1	96.7	78.1	inactive
Ncam2	2	76.8	72.8	inactive
Ncam2	3	119	113	inactive
Cep295	1	72.8	66.5	inactive
Cep295	2	63.5	97.4	inactive
Cep295	3	128	115	active
Dis3l	1	18.9	11.9	inactive
Dis3l	2	83.3	91.4	inactive
Dis3l	3	61.3	55.9	inactive
Ccdc198	1	70.9	75.9	inactive
Ccdc198	2	93.6	83	inactive
Ccdc198	3	71	72.6	inactive
Slc2a9	1	101	65.4	inactive
Slc2a9	2	99.9	90.9	inactive
Slc2a9	3	59.3	84.8	inactive
Unk	1	71.4	73.3	inactive
Unk	2	86.5	66.1	inactive
Unk	3	50.6	103	inactive
Fbxl8	1	66	56.5	inactive
Fbxl8	2	112	56.9	inactive
Fbxl8	3	80.7	75.7	inactive
Ncaph2	1	54.2	83.3	inactive
Ncaph2	2	85.5	70	inactive
Ncaph2	3	94.8	94.4	inactive
Dynll2	1	26.4	23.8	inactive
Dynll2	2	71.3	99.9	inactive
AY702102	1	82.4	78.2	inactive
AY702102	2	57.1	78.5	inactive
AY702102	3	41	47.1	inactive
Pudp	1	85.1	98.6	inactive
Pudp	2	94.6	79.9	inactive
Pudp	3	87.1	87.4	inactive
Shisa5	1	61.6	71.7	inactive
Shisa5	2	107	68.4	inactive
Shisa5	3	84.9	74.3	inactive
Mgme1	1	61.4	68.1	inactive
Mgme1	2	82	76.9	inactive
Mgme1	3	132	131	active
Fetub	1	50.7	63.9	inactive
Fetub	2	27.5	50.6	inactive
Fetub	3	95.6	83.4	inactive
Nell1	1	93.1	71.2	inactive
Nell1	2	88.8	92.2	inactive
Nell1	3	58.5	65.8	inactive
Xpo1	1	123	96.5	active
Xpo1	2	84.6	54.4	inactive
Xpo1	3	81.3	69.3	inactive
Cimap2	1	34.5	23.9	inactive
Cimap2	2	97.8	89.9	inactive
Cimap2	3	73.5	70.6	inactive
Or51ah3	1	18.1	15.7	inactive
Or51ah3	2	89.7	100	inactive
Or51ah3	3	52.3	56.5	inactive
Slc12a4	1	90.9	95.7	inactive
Slc12a4	2	163	66.5	active
Slc12a4	3	83.7	82.8	inactive
Sulf1	1	90.6	79.8	inactive
Sulf1	2	131	82.2	active
Sulf1	3	94.8	78.4	inactive
Map1s	1	63.3	53.8	inactive
Map1s	2	75.1	70.8	inactive
Map1s	3	103	72.8	inactive
Zfand2b	1	81.4	81.3	inactive
Zfand2b	2	70.6	76.6	inactive
Zfand2b	3	63.4	61.6	inactive
Ca7	1	52.8	50.3	inactive
Ca7	2	44.8	60.9	inactive
Ca7	3	54.9	79.7	inactive
Rfc4	1	106	119	inactive
Rfc4	2	117	97.9	inactive
Chek2	1	176	124	active
Chek2	2	74	66.1	inactive
Chek2	3	94.4	90	inactive
Zfp90	1	49.8	55	inactive
Zfp90	2	102	106	inactive
Zfp90	3	85.3	66.6	inactive
Tmem130	1	51.3	71.1	inactive
Tmem130	2	64.4	74.1	inactive
Tmem130	3	163	147	active
Lhfpl5	1	69.3	54.8	inactive
Lhfpl5	2	73.5	93	inactive
Lhfpl5	3	147	135	active
Ppp4c	1	79.9	155	inactive
Ppp4c	2	97.7	85.5	inactive
S1pr2	1	69.2	45.1	inactive
S1pr2	2	83.8	78.4	inactive
S1pr2	3	87.7	85.8	inactive
Psmd2	1	21.6	11.8	inactive
Psmd2	2	29.5	22.2	inactive
Macroh2a3	1	118	109	inactive
Macroh2a3	2	85.9	102	inactive
Macroh2a3	3	93.2	97.2	inactive
Il4ra	1	99.3	88	inactive
Il4ra	2	35.1	21.1	inactive
Il4ra	3	113	75.1	inactive
Pramel52-ps	1	68.3	67.2	inactive
Pramel52-ps	2	31.4	55.4	inactive
Pramel52-ps	3	42	76.1	inactive
Pcdha9	1	99.2	93.5	inactive
Pcdha9	2	76.6	61.2	inactive
Pcdha9	3	73.1	73.5	inactive
Sort1	1	72.3	60.9	inactive
Sort1	2	55.9	54.4	inactive
Sort1	3	41.6	45.3	inactive
